{"source": "PubChem BioAssay AID504834", "about": "(National Center for Advancing Translational Sciences (NCATS), 2011)", "note": "Among all 320,000 compounds or so, about 22,000 (6.9%) were called active. The shares of active, inactive and inconclusive entries below differ from those in the screen. Calls follow the shape of the dose curve; as a rule, active = well fitted inhibition curve with a large enough effect; inconclusive = small, poorly fitted or top-dose-only effect, or another doubt; inactive = no such curve, though single readings can be large or run the other way. Where the call is inconclusive, the potency comes from a doubtful curve fit. % is scaled to controls: 0 for no effect and ±100 for the full control effect; potency is read from the fitted curve at half-maximal effect."}
{"experiment": "Primary qHTS for delayed death inhibitors of the malarial parasite plastid, 96 hour incubation", "conditions": "P. falciparum luciferase reporter growth; series mostly up to 28.7 µM; activity change, negative = inhibition: at the top concentration", "summary_of_the_method": "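Luminescence readout: decreased luciferase signal marks inhibited growth of reporter-expressing P. falciparum in infected red cells (2% hematocrit, 0.05% parasitemia final), exposed to compound two generations (96 h, 37 C, 5% CO2).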"}
{"smiles": "Cc1ccc(S(=O)(=O)N2CCCc3cc(NC(=O)c4c(F)cccc4F)ccc32)cc1", "activity change, negative = inhibition": "inactive: 13.7%"}
{"smiles": "CN=Cc1cc(-c2ccccc2)sc1O", "Potency": "inconclusive: 20.8 µM [inhibitor, partial curve, poor fit]"}
{"smiles": "O=C(COC(=O)c1nc(Cl)ccc1Cl)NC1CCCCC1", "activity change, negative = inhibition": "inactive: -20.6%"}
{"smiles": "O=C(COc1ccccc1F)Nc1nnc(-c2ccncc2)s1", "activity change, negative = inhibition": "inactive: 6.67%"}
{"smiles": "COc1ccc(C)cc1NC(=O)c1ccc(S(=O)(=O)N2CCCCC2)cc1", "activity change, negative = inhibition": "inactive: -0.215%"}
{"smiles": "O=C1N(Cc2cccnc2)C[C@@H]2C[C@@H](c3cccc(OC4CCCC4)c3)N3CCC[C@@]123", "activity change, negative = inhibition": "inactive: 42.2%"}
{"smiles": "Cc1cccc(-c2noc(-c3ccccc3C(=O)NCc3ccco3)n2)c1", "activity change, negative = inhibition": "inactive: 34.3%"}
{"smiles": "CC1(C)Cc2c(C#N)c(N3CCNCC3)nc(-c3ccco3)c2CS1", "Potency": "inconclusive: 18.5 µM [inhibitor, single point]"}
{"smiles": "COC(=O)N/N=C/c1cc(N=Nc2ccccc2Cl)ccc1O", "Potency": "active: 7.38 µM"}
{"smiles": "COc1ccc(-c2[nH]ncc2/C=C(/C#N)C(=O)NC2CCCCCC2)cc1", "Potency": "inconclusive: 5.86 µM [inhibitor, partial curve]"}
{"smiles": "O=C(OCC(=O)c1ccc[nH]1)c1ccc(S(=O)(=O)N2CCCCC2)cc1", "Potency": "inconclusive: 0.0037 µM [inhibitor, full curve, poor fit]"}
{"smiles": "COc1ccc(S(=O)(=O)N2CCC(C(=O)NCCOc3ccccc3F)CC2)cc1OC", "Potency": "inconclusive: 11.7 µM [inhibitor, single point]"}
{"smiles": "C/C(CCN1CCCCc2nc(C)c(C)cc21)=N\\OC[C@@H](O)[C@H]1O[C@@H]2OC(C)(C)O[C@@H]2[C@H]1O", "activity change, negative = inhibition": "inactive: -24%"}
{"smiles": "O=c1cc(-c2ccccc2)[nH]c2ccccc12", "activity change, negative = inhibition": "inactive: 2.38%"}
{"smiles": "O=C(c1ccc(F)c(S(=O)(=O)N2CCOCC2)c1)N1CCN(c2ncccn2)CC1", "activity change, negative = inhibition": "inactive: -23.1%"}
{"smiles": "COc1ccc2nc(N/C(N)=N/C(=S)Nc3c(C)cccc3C)nc(C)c2c1", "Potency": "inconclusive: 9.28 µM [inhibitor, partial curve, poor fit]"}
{"smiles": "COc1ccccc1Oc1nc2c(c(=O)n(Cc3ccccc3F)c(=O)n2C)n1C", "Potency": "active: 14.7 µM"}
{"smiles": "CCCCCC/C=C/c1ccc(OC)c([C@H]2[C@H]3C=CC[C@@H](C)[C@@H]3C(=O)N2Cc2ccccc2)c1", "activity change, negative = inhibition": "inactive: -11.1%"}
{"smiles": "NNC(=O)c1[nH]c2ccc(Br)cc2c1-c1ccccc1", "Potency": "inconclusive: 10.4 µM [inhibitor, single point]"}
{"smiles": "O=Cc1c(SCCO)nc2ccccn2c1=O", "activity change, negative = inhibition": "inactive: 9.18%"}
{"smiles": "Cc1ccc(CCC(=O)Nc2ccc([N+](=O)[O-])cc2Cl)o1", "Potency": "inconclusive: 2.08 µM [inhibitor, partial curve, poor fit]"}
{"smiles": "O=C1C=C(c2cccc(Br)c2)C[C@@H](c2ccc(F)cc2)C1", "Potency": "active: 2.33 µM"}
{"smiles": "COCCNc1nc(-c2cc(C)n(CCc3ccc(OC)cc3)c2C)cs1", "Potency": "inconclusive: 6.57 µM [inhibitor, partial curve, poor fit]"}
{"smiles": "COc1ccccc1NS(=O)(=O)c1ccc2ccccc2c1", "activity change, negative = inhibition": "inactive: -11.5%"}
{"smiles": "C=C1CCN(C(Cc2ccccc2)C(=O)OC)S(=O)(=O)c2ccc(F)cc21", "note": "(stereo not drawn)", "Potency": "inconclusive: 10.4 µM [inhibitor, partial curve, poor fit]"}
{"smiles": "O=C1NC(=O)N(Cc2ccccc2)C(=O)/C1=C\\N1CCCc2ccccc21", "activity change, negative = inhibition": "inactive: 70.2%"}
{"smiles": "O=C(Nc1ccc(S(=O)(=O)NC2=NCCCCC2)cc1)c1ccc(=O)[nH]c1", "activity change, negative = inhibition": "inactive: -3.32%"}
{"smiles": "CCOc1cccc(CN2CCCC(N3CCN(c4cccc(Cl)c4)CC3)C2)c1O", "note": "(stereo not drawn)", "Potency": "active: 3.7 µM"}
{"smiles": "S=C(NNC(=S)Nc1ccccc1)Nc1ccccc1", "activity change, negative = inhibition": "inactive: 73%"}
{"smiles": "S=C(NCC1CCCO1)Nc1ccc(Nc2ccccc2)cc1", "note": "(stereo not drawn)", "Potency": "active: 11.7 µM"}
{"smiles": "COCCN(C(=O)CCC(=O)Nc1ccccn1)C(C(=O)NC(C)(C)C)c1ccc(OC)cc1", "note": "(stereo not drawn)", "Potency": "inconclusive: 10.4 µM [inhibitor, single point]"}
{"smiles": "CC(C)C[C@H](NC(=O)c1nc[nH]c1C(=O)N[C@@H](CC(C)C)C(=O)OC(C)(C)C)C(=O)OC(C)(C)C", "Potency": "active: 8.28 µM"}
{"smiles": "CC(=O)Nc1ccc(NC(=O)CN(C)S(=O)(=O)c2ccc3c(c2)CCC(=O)N3)cc1", "Potency": "inconclusive: 0.0208 µM [inhibitor, full curve, poor fit]"}
{"smiles": "CC1CCCC(C)N1C(=O)CSc1nnc(CSc2ncccn2)n1C", "note": "(stereo not drawn)", "Potency": "active: 10.4 µM"}
{"smiles": "Cn1c(CN2CCCCC2)nc2cc(NC(=O)c3ccc(Cl)cc3)ccc21", "activity change, negative = inhibition": "inactive: -6.71%"}
{"smiles": "O=C(/C=C/c1ccc(Br)cc1)NCCCn1ccnc1", "Potency": "inconclusive: 18.5 µM [inhibitor, single point]"}
{"smiles": "Cc1ccc2nc(NC(=O)CS(=O)(=O)Cc3ccccc3)sc2c1", "Potency": "inconclusive: 0.329 µM [inhibitor, partial curve, poor fit]"}
{"smiles": "Cc1ccc(-n2c(C)cc(C3N=C(N)Nc4nc5ccccc5n43)c2C)c(C)c1", "note": "(stereo not drawn)", "activity change, negative = inhibition": "inactive: -24.6%"}
{"smiles": "COC(=O)c1c(-c2ccc(C(C)(C)C)cc2)csc1NC(=O)C1C2CCC(O2)C1C(=O)O", "note": "(stereo not drawn)", "Potency": "inconclusive: 10.4 µM [inhibitor, single point]"}
{"smiles": "COC(=O)c1ccc(/C=N\\NC(=O)c2c(C)nc3ccc(Cl)cn23)cc1", "Potency": "inconclusive: 18.5 µM [inhibitor, single point]"}
{"smiles": "CC(=O)NN1C(=O)c2ccccc2NC1c1ccccn1", "note": "(stereo not drawn)", "Potency": "inconclusive: 18.5 µM [inhibitor, single point]"}
{"smiles": "Cc1ccc2[nH]c(=O)c(CN(Cc3cccnc3)C(=O)c3ccncc3)cc2c1", "activity change, negative = inhibition": "inactive: 3.34% [at 5.75 µM]"}
{"smiles": "Cc1ccc(CNC(=O)c2ccc(Br)o2)cc1", "activity change, negative = inhibition": "inactive: 16.8%"}
{"smiles": "O=C(N/C=N/O)C1=NOC(CNc2ncc(C(F)(F)F)cc2Cl)C1", "note": "(stereo not drawn)", "activity change, negative = inhibition": "inactive: -1.68%"}
{"smiles": "Cc1cc(-c2nc(C)c(-c3nnc(SCC(=O)Nc4cc(Cl)cc(Cl)c4)n3C)s2)no1", "Potency": "inconclusive: 10.4 µM [inhibitor, single point]"}
{"smiles": "O=C(COn1nnc2ccc(C(F)(F)F)cc21)Nc1c(Cl)cccc1Cl", "activity change, negative = inhibition": "inactive: 39.9%"}
{"smiles": "COc1cc(C(=O)Nc2nc3ccccc3s2)ccc1OCc1c(C)noc1C", "Potency": "inconclusive: 3.29 µM [inhibitor, partial curve, poor fit]"}
{"smiles": "COc1cccc(C(=O)NC(=S)N2c3ccccc3CC2C)c1OC", "note": "(stereo not drawn)", "Potency": "inconclusive: 18.5 µM [inhibitor, single point]"}
